This passage reports binding results from publication doi:10.1101/559146.

By UniProt entry, the sequences of proteins in these tests, tags left out. Residues count along the entry.
UniProt P25443, residues 1-73: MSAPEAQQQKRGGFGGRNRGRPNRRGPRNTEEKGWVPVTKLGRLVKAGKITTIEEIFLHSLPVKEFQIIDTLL

The target in the test is T1, Tsr4-TEV-13myc (S. cerevisiae) (UniProt P25040).
T1 sequence: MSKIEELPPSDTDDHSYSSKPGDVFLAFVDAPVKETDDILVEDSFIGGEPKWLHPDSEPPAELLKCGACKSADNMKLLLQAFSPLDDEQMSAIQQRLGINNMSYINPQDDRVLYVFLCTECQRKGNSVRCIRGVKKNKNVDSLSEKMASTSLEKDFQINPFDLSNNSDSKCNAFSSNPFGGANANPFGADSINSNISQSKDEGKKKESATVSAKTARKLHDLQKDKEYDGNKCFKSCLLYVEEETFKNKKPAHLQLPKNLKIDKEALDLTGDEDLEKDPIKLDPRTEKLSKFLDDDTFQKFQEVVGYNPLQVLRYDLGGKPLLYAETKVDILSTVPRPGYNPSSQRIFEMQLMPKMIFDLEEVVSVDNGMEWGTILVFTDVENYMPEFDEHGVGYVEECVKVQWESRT
The test is described as follows: co-IP.

No constants are given. Whether binding was seen depends on the method and setting. Binding seen in cells or lysates may run through a third protein. Some binding calls cover weakened binding; strength is not graded here. Tags and fused reporters may be left off the sequences shown.

On to “Rps2(1-73)-GFP (from UniProt P25443 1-73) (domain or fragment)”, for which the binding entry is given as “binds”.
